Data from patent publication JP2023100255A.
Results are given in words; binding and its absence hold for the method and conditions named. Some entries that bind do so weakly or less than the wild type.

By UniProt entry, the sequences of proteins in these tests, tags left out. Where a name states a change or a piece, a line headed by the entry shows the natural chain unless it says otherwise.
UniProt P07766: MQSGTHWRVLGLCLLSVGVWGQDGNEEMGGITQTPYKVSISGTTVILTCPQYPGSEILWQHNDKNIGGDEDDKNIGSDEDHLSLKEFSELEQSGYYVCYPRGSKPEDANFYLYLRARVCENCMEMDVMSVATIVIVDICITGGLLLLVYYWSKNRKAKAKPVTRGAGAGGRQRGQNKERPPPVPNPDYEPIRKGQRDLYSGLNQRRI

Biological target: ヒトCD3(初代ヒトT細胞上に発現) (human) (UniProt P07766)
Assay: flow cytometry on primary human T cells, 37 °C

B1: B7-H4xCD3二重特異性抗体1167 (bispecific antibody)
heavy 1: EVQLLESGGGLVQPGGSLRLSCAASGFTFSSYAMSWVRQAPGKGLEWVSAISGGGGSTYYADSVKGRFTISRDNSKNTLYLQMNSLRAEDTAVYYCARDIQWYGESTLFDYWGQGTLVTVSSASTKGPSVFPLAPCSRSTSESTAALGCLVKDYFPEPVTVSWNSGALTSGVHTFPAVLQSSGLYSLSSVVTVPSSNFGTQTYTCNVDHKPSNTKVDKTVERKCEVECPECPAPPVAGPSVFLFPPKPKDTLMISRTPEVTCVVVAVSHEDPEVQFNWYVDGVEVHNAKTKPREEQFNSTFRVVSVLTVVHQDWLNGKEYKCKVSNKGLPSSIEKTISKTKGQPREPQVYTLPPSREEMTKNQVSLTCEVKGFYPSDIAVEWESNGQPENNYKTTPPMLDSDGSFFLYSKLTVDKSRWQQGNVFSCSVMHEALHNHYTQKSLSLSPGK
light 1: DIQMTQSPSSLSASVGDRVTITCRASQSTRSHLAWYQQKPGKAPKLLIYKASSLEGGVPSRFSGSGSGTDFTLTISSLQPEDFATYYCQQYGSYSRTFGQGTKVEIKRTVAAPSVFIFPPSDEQLKSGTASVVCLLNNFYPREAKVQWKVDNALQSGNSQESVTEQDSKDSTYSLSSTLTLSKADYEKHKVYACEVTHQGLSSPVTKSFNRGEC
heavy 2: EVQLVESGGGLVQPGGSLRLSCAASGFTFSDYYMTWVRQAPGKGLEWVAFIRNQARGYTSDHNPSVKGRFTISRDNAKNSLYLQMNSLRAEDTAVYYCARDRPSYYVLDYWGQGTTVTVSSASTKGPSVFPLAPCSRSTSESTAALGCLVKDYFPEPVTVSWNSGALTSGVHTFPAVLQSSGLYSLSSVVTVPSSNFGTQTYTCNVDHKPSNTKVDKTVERKCRVRCPRCPAPPVAGPSVFLFPPKPKDTLMISRTPEVTCVVVAVSHEDPEVQFNWYVDGVEVHNAKTKPREEQFNSTFRVVSVLTVVHQDWLNGKEYKCKVSNKGLPSSIEKTISKTKGQPREPQVYTLPPSREEMTKNQVSLTCLVKGFYPSDIAVEWESNGQPENNYKTTPPMLDSDGSFFLYSRLTVDKSRWQQGNVFSCSVMHEALHNHYTQKSLSLSPGK
light 2: DIQMTQSPSSLSASVGDRVTITCTSSQSLFNVRSQKNYLAWYQQKPGKAPKLLIYWASTRESGVPSRFSGSGSGTDFTLTISSLQPEDFATYYCKQSYDLFTFGGGTKVEIKRTVAAPSVFIFPPSDEQLKSGTASVVCLLNNFYPREAKVQWKVDNALQSGNSQESVTEQDSKDSTYSLSSTLTLSKADYEKHKVYACEVTHQGLSSPVTKSFNRGEC
  binding: binds
